Experimental findings from article PMC4667432 are described below.

The target in this assay is T1, Dishevelled-1 (Dvl1), endogenous in mature rat hippocampal neurons (rat (endogenous in hippocampal neurons)) (UniProt Q9WVB9).
T1 sequence: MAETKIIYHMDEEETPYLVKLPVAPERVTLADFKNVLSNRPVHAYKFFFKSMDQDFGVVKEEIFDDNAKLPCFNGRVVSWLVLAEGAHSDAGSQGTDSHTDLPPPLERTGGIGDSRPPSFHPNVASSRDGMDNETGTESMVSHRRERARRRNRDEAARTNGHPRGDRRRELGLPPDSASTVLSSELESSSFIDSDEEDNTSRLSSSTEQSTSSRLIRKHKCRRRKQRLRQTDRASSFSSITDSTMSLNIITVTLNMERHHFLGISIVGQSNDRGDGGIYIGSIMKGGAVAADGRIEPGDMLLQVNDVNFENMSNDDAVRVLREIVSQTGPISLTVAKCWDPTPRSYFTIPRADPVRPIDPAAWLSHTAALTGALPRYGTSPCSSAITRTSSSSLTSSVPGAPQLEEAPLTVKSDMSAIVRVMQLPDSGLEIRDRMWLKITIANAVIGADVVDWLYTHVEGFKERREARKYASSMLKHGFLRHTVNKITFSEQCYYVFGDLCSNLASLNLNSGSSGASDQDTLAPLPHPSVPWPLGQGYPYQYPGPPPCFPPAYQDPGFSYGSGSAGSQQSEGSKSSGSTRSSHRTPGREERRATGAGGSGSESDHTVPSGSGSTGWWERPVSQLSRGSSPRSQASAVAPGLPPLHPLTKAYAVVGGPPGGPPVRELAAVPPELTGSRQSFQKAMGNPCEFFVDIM
Kind of assay: co-IP; endogenous proteins; mature high-density hippocampal cultures lysed in Triton buffer (50 mM Hepes-NaOH, 0.1 M NaCl, 4 mM EGTA, 2 mM MgCl2, 0.5% Triton X-100); Dvl1 monoclonal antibody and protein G-Sepharose overnight at 4 °C; western blot; also after treatment of the neurons with Wnt7a (more Syt-1 with Dvl1) or Sfrps (less). (Immunoblotting shows a protein as a band on a membrane.)

No constants are given. Whether binding was seen depends on the method and setting. Binding seen in cells or lysates may run through a third protein.

On to “Complexin, endogenous in mature rat hippocampal neurons”, for which the binding entry is “no binding”.
With “Munc-18, endogenous in mature rat hippocampal neurons” the entry was “no binding”.
